# Test results as given in PubChem BioAssay (EPA / NIEHS).
# The chains behind the UniProt entries cited, without tags or fusion partners. Where a name states a change or a piece, a line headed by the entry shows the natural chain unless it says otherwise.
# UniProt P20813: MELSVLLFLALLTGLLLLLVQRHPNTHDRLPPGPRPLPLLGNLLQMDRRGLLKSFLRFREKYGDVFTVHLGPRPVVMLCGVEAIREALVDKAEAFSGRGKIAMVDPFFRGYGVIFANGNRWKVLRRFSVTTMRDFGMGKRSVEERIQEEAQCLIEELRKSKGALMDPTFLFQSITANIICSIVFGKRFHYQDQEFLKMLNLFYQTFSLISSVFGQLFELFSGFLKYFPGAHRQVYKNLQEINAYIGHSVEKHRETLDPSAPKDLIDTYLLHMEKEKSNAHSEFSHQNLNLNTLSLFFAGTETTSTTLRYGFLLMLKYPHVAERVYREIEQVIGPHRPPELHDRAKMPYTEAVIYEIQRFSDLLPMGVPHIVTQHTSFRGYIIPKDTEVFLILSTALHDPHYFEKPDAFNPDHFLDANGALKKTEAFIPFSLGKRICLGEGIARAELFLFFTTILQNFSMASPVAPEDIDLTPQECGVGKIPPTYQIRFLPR
# UniProt Q9UNQ0: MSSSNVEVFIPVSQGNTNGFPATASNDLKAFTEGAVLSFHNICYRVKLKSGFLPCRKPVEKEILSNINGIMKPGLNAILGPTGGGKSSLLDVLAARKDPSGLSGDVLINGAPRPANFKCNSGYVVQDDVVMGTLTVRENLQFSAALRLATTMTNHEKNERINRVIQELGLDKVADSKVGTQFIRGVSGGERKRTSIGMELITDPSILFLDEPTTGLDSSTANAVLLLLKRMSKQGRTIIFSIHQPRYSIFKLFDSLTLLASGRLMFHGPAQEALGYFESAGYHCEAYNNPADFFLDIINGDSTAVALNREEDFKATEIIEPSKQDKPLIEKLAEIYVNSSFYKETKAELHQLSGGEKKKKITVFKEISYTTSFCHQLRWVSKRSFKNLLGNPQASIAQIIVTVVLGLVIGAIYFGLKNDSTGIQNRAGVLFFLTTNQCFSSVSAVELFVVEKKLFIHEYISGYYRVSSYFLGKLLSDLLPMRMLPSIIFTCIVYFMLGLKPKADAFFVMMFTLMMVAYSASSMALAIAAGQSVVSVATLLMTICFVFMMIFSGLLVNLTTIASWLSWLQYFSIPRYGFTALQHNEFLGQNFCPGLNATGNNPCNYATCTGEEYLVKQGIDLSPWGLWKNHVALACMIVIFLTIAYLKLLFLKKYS
# UniProt P04406: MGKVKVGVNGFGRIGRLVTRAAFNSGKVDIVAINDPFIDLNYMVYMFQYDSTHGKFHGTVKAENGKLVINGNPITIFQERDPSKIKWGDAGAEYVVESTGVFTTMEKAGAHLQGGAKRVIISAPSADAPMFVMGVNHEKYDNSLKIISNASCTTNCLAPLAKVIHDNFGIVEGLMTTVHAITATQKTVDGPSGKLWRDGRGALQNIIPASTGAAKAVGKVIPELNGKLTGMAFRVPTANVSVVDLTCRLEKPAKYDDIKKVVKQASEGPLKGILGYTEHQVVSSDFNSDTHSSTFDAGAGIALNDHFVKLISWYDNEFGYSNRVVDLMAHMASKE
# UniProt P08684, whole entry, looked up: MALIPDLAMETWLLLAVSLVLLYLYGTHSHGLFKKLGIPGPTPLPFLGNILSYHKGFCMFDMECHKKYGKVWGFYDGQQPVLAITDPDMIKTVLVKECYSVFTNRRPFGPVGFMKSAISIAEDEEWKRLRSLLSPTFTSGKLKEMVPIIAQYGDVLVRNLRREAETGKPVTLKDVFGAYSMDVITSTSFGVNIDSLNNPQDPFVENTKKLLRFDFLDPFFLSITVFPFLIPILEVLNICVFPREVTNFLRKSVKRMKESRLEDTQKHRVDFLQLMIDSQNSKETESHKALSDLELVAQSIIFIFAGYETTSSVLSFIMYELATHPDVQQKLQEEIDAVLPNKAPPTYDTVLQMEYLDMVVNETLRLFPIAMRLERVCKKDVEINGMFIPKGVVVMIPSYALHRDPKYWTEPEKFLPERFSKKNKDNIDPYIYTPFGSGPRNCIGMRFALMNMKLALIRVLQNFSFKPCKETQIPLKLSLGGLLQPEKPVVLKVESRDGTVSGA
# “And” between values parts separate entries of the source, which are not always exact repeats. Identical values can stand only once. Inconclusive results, whose numbers are uncertain, are shown with a selection of clear calls. For some assays here: Where the call is inconclusive, the potency comes from a doubtful curve fit. Some structures have more than one record in an assay (separate samples or runs), and their calls can disagree. The source made the active and inactive calls. The calls were made as follows: active = hit-call score of the fitted dose curve at least 0.9, where 1 is the maximum; inconclusive = response in the unintended direction; inactive = score below 0.9.
# Columns and labels:
# [1] = read-out: Cytochrome P450 2B6 (Homo sapiens) (UniProt P20813); experiment: CLD_CYP2B6_48hr: CellzDirect (CLD) Gene Expression Assay for xenobiotic metabolism (CYP2B6) at 48 hours (AID 2283699);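 also: actives raise transcript level above DMSO so potency reflects induction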
# In short: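 CYP2B6 transcript induction, read by quantitative nuclease protection (S1 digestion, chemiluminescent detection) 48 h after dosing, is fitted upward against 0.2% DMSO. Cultured human liver primary cells, two donor preparations, received fresh chemical daily over multiple concentrations.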
# [2] = CLD_ACTIN_48hr: CellzDirect (CLD) Gene Expression Assay for Baseline Control (Actin) at 48 hours (AID 2283702)
# In short: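 Background-control actin mRNA read by qNPA chemiluminescence at 48 h. Human hepatocyte cultures from two donors received fresh multi-concentration chemical doses daily for two days; 0.2% DMSO served as vehicle baseline.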
# [3] = read-out: Broad substrate specificity ATP-binding cassette transporter ABCG2 (Homo sapiens) (UniProt Q9UNQ0); experiment: CLD_ABCG2_48hr: CellzDirect (CLD) Gene Expression Assay for ABC Transporter (ABCG2) at 48 hours (AID 2283704);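 also: potency for induction of ABCG2 mRNA above the DMSO baseline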
# In short: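 ABCG2 transcript measured at 48 h by quantitative nuclease protection (chemiluminescent) and fitted for increase relative to 0.2% DMSO. Hepatocyte cultures from separate donors got fresh compound daily over two days; morphology annotated cytotoxicity.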
# [4] = read-out: xenobiotic metabolism (CYP1A1), CYP1A1 (gene 1543); experiment: CLD_CYP1A1_48hr: CellzDirect (CLD) Gene Expression Assay for xenobiotic metabolism (CYP1A1) at 48 hours (AID 2283705)
# In short: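 CYP1A1 transcript measured by quantitative nuclease protection (chemiluminescent) 48 h after two daily treatments of human hepatocyte cultures, versus 0.2% DMSO. Morphology-based cytotoxicity flags accompany data; two donor preparations used.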
# [5] = read-out: Glyceraldehyde-3-phosphate dehydrogenase (Homo sapiens) (UniProt P04406); experiment: CLD_GAPDH_48hr: CellzDirect (CLD) Gene Expression Assay for Baseline Control (Glyceraldehyde 3-phosphate dehydrogenase) at 48 hours (AID 2283706);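 as to outcome: active means higher GAPDH mRNA than DMSO vehicle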
# In short: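 GAPDH baseline-control readout: qNPA chemiluminescent mRNA quantitation in human liver primary cells 48 h after daily dosing on two consecutive days, vehicle 0.2% DMSO; gain of signal fitted against DMSO, cytotoxicity flagged by phase-contrast morphology.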
# [6] = read-out: organic anion transporter (SLCO1B1), SLCO1B1 (gene 10599); experiment: CLD_SLCO1B1_48hr: CellzDirect (CLD) Gene Expression Assay for organic anion transporter (SLCO1B1) at 48 hours (AID 2283707)
# In short: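 SLCO1B1 transcript quantified by qNPA with chemiluminescent readout after 48 h of once-daily chemical exposure. Cultured human primary hepatocytes came from two donors, with 0.2% DMSO vehicle; positive-direction fitting against DMSO, cytotoxicity flagged by morphology.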
# [7] = read-out: Cytochrome P450 3A4 (Homo sapiens) (UniProt P08684); experiment: CLD_CYP3A4_48hr: CellzDirect (CLD) Gene Expression Assay for xenobiotic metabolism (CYP3A4) at 48 hours (AID 2283698)
# In short: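 CYP3A4 induction read by qNPA chemiluminescence after 48 h, with fresh dosing solutions on consecutive days, in cultured human hepatocytes (two donors). Vehicle 0.2% DMSO as baseline; microscopy-based cytotoxicity annotated yes/no alongside data.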
# [8] = STM_H9_OrnCyssISnorm_ratio: Stemina devTOX quickPredict H9 human embryonic stem cell (hESC)-based Assay for Ornithine (ORN):Cystine (CYSS) Ratio (AID 2283714)
# In short: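 UPLC-HRMS of spent media: ORN/CYSS ratio of internal-standard-normalized percentages, DMSO (0.1%) baseline. Pluripotent H9 hESCs, 72h exposure, daily re-dosing with fresh media; last 24h media collected.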
# [9] = read-out: glucuronosyltransferase (UGT1A1), UGT1A1 (gene 54658); experiment: CLD_UGT1A1_24hr: CellzDirect (CLD) Gene Expression Assay for glucuronosyltransferase (UGT1A1) at 24 hours (AID 2283696)
# In short: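 UGT1A1 transcript induction was measured by quantitative nuclease protection assay (chemiluminescence) in human hepatocyte cultures 24 h after daily fresh dosing, with 0.2% DMSO as vehicle and baseline.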
# [10] = read-out: glucuronosyltransferase (UGT1A1), UGT1A1 (gene 54658); experiment: CLD_UGT1A1_48hr: CellzDirect (CLD) Gene Expression Assay for glucuronosyltransferase (UGT1A1) at 48 hours (AID 2283709);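 also: actives increase expression relative to DMSO so potency refers to induction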
# In short: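 Quantitative nuclease protection assay (chemiluminescent) for UGT1A1 mRNA at 48 h in human hepatocyte cultures from two donors, redosed daily with fresh solutions. Induction fitted relative to 0.2% DMSO; phase-contrast morphology annotated cytotoxicity.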
# [11] = read-out: sulfotransferase (SULT2A), SULT2A1 (gene 6822); experiment: CLD_SULT2A_48hr: CellzDirect (CLD) Gene Expression Assay for sulfotransferase (SULT2A) at 48 hours (AID 2283710);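 also: hits raise SULT2A1 transcript above the 0.2% DMSO vehicle baseline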
# In short: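 SULT2A1 transcript measured by qNPA chemiluminescence in human primary hepatocyte cultures after 48 h, with fresh dosing solutions on two consecutive days; gain-of-signal fitting against 0.2% DMSO vehicle; cytotoxicity annotated from phase-contrast morphology.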
# [12] = Tanguay_ZF_120hpf_ActivityScore_legacy: (Legacy) Oregon State University Tanguay Lab 120 Hour Post-fertilization zebrafish Assay Score for Activity (AID 2283742);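 as to AC50: dechorionated Tropical 5D wild-type zebrafish embryos held singly per well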
# In short: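 Dechorionated 5D embryos, one per well, static exposure 6–120 hpf, 28C, sealed and dark; final DMSO 0.64% (vol/vol). Brightfield binary scoring of mortality plus 18 endpoints; gain-of-signal fit versus DMSO baseline.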
# [13] = ArunA_CellTiter_hNC: Viability Assessment in the ArunA Biomedical's Oris Neural Crest (hNC) Cell Migration Assay (AID 2283752)
# In short: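 Cytotoxicity endpoint run alongside the migration assay: neural crest cells on Matrigel, 60,000 per well, preincubated 16 h at 37C, treated 72 h; CellTiter Aqueous One signal loss relative to DMSO.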
# [14] = ArunA_CellTiter_hNP: Viability Assessment in the ArunA Biomedical's Oris Neural Crest (hNC) Cell Migration Assay (AID 2283753)
# In short: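 Viability read with CellTiter 96 Aqueous One after 72 h chemical exposure of human hNP1 neuroprogenitors, which were plated on Matrigel in LIF/bFGF medium 16 h beforehand. Endpoint fitted in positive direction relative to DMSO.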
# [15] = tested on: Thyroperoxidase (TPO), gene 445522; experiment: CCTE_Simmons_GUA_TPO: CCTE's Guaiacol Assay for Thyroperoxidase (TPO) Inhibition, Simmons Lab (AID 2283750)
# In short: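 Porcine thyroid microsomes (25 ug) in 200mM potassium phosphate, preincubated 30 s at 37C with compound (8 concentrations, 5 nM–87.5 uM) and 35mM guaiacol; 1mM H2O2 starts reaction. Absorbance change at 450nm over first 80 s; loss of signal versus DMSO, three replicates.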
# [16] = ArunA_NOG_NeuriteLength: ArunA Biomedical's Neurite Outgrowth (NOG) Assay for Neurite Length (AID 2283757)
# In short: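 Total neurite length per neuron, from traced βIII-tubulin-labelled processes longer than 10 um on viable Hoechst-gated cells, was scored as decrease from DMSO. Cells were hESC (H9)-derived neurons given 48 h chemical exposure immediately after seeding.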
# [17] = ArunA_NOG_NeuritesPerNeuron: ArunA Biomedical's Neurite Outgrowth (NOG) Assay for Neurites Per Neuron (AID 2283758)
# In short: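 Differentiated human H9-derived neurons exposed to chemicals for 48 h from seeding, then stained with Hoechst and βIII-tubulin/DyLight 488. Automated imaging counted neurites (processes >10 um) per valid neuron; loss of signal versus DMSO scored.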
# [18] = ArunA_Migration_hNP: ArunA Biomedical's Oris Neuroprogenitor (hNP) Cell Migration Assay (AID 2283754)
# In short: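 Readout is calcein-AM fluorescence (ex494/em517) of cells migrating into the detection zone, relative to DMSO. hNP1 cells (H9-derived) grown on Matrigel behind stoppers 16 h, then stoppers pulled and chemical applied 72 h; cytochalasin D as control.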
# [19] = ArunA_Migration_hNC: ArunA Biomedical's Oris Neural Crest (hNC) Cell Migration Assay (AID 2283755)
# In short: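 Calcein-AM fluorescence (ex494 nm/em 517 nm) in the stopper-defined detection zone quantifies migration of hNC cells after 72 h chemical exposure; 60,000 cells/well plated on Matrigel with LIF and bFGF, 16 h pre-incubation. DMSO baseline.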
compound,measurement,setting,value
COC(=O)c1c(Cl)nn(C)c1S(=O)(=O)NC(=O)Nc1nc(OC)cc(OC)n1,outcome,[1],inactive
same,outcome,[2],inactive
same,AC50,[3],inconclusive: 20 µM
same,outcome,[4],inactive
same,outcome,[5],inactive
same,AC50,[6],inconclusive: 1.9 µM
CCCN(CCC)C(=O)SCC,outcome,[7],inactive
same,outcome,[2],inactive
same,AC50,[3],inconclusive: 20 µM
same,AC50,[4],inconclusive: 20 µM and inconclusive: 24.1 nM
same,outcome,[5],inactive
same,outcome,[6],inactive
Oc1c(Cl)cc(Cl)cc1Sc1cc(Cl)cc(Cl)c1O,outcome,[8],inactive
CCN(Cc1c(F)cccc1Cl)c1c([N+](=O)[O-])cc(C(F)(F)F)cc1[N+](=O)[O-],AC50,[9],inconclusive: 20 µM
same,AC50,[2],inconclusive: 2.33 µM
same,AC50,[3],inconclusive: 1.9 µM
same,AC50,[5],inconclusive: 2.82 µM
same,AC50,[6],inconclusive: 3.97 µM
same,outcome,[8],inactive
OB(O)O,outcome,[7],inactive
same,outcome,[1],inactive
same,outcome,[2],inactive
same,AC50,[3],inconclusive: 20 µM
same,outcome,[5],inactive
same,outcome,[6],inactive
same,outcome,[10],inactive
same,outcome,[11],inactive
same,AC50,[8],inconclusive: 0.809 µM
CCCCN(CCO)CCO,outcome,[8],inactive
O=C(c1ccc(O)cc1)c1ccc(O)cc1O,AC50,[8],inconclusive: 1.98 µM
O=S1(=O)CCCO1,AC50,[8],active: 78.2 µM
CN(C)C=O,AC50,[8],inconclusive: 5.72 µM
same,AC50,[12],inconclusive: 196 µM
COc1cc(C(=O)NC2CCN(C)CC2)ccc1Nc1ncc2c(n1)N(C1CCCC1)CC(F)(F)C(=O)N2C,AC50,[8],active: 0.0311 µM
O=C(O)[C@H](O)[C@@H](O)C(=O)O,AC50,[12],inconclusive: 143 µM
Cn1cc[nH]c1=S,AC50,[8],inconclusive: 22.2 µM
same,AC50,[12],inconclusive: 90.1 µM
same,AC50,[13],inconclusive: 0.293 µM
same,AC50,[14],inconclusive: 628 nM
CC(C)(C)CC(C)(C)c1ccc(O)c(-n2nc3ccccc3n2)c1,outcome,[12],inactive
C[C@@H](Oc1ccc(CNC(=O)c2cccnc2Oc2ccc3c(c2)OCO3)c(F)c1)C(=O)O,outcome,[15],inactive
Cc1oc(-c2ccccc2)nc1CCOc1cccc2c1ccn2CCC(=O)O,AC50,[8],inconclusive: 0.0146 µM
CCOC(=O)c1ccc(C2CCC(NC[C@H](O)COc3ccc(O)c(NS(C)(=O)=O)c3)CC2)cc1 (stereo partly specified),AC50,[8],active: 1.42 µM
CCCCCCCCCCCCc1ccccc1,AC50,[8],inconclusive: 25 µM
Cc1cc(C2(c3cc(C)c(O)cc3C)OS(=O)(=O)c3ccccc32)c(C)cc1O,AC50,[8],inconclusive: 10 µM
CCCCC(CC)COC(=O)CC(C(=O)OCC(CC)CCCC)S(=O)(=O)O (stereo unspecified),outcome,[13],inactive
same,AC50,[14],active: 7540 nM
same,outcome,[16],inactive
same,outcome,[17],inactive
Cc1nc(-c2ccc3c(c2)CCN(CCC2CCC(NC(=O)/C=C/c4ccc(F)cc4)CC2)CC3)no1 (stereo unspecified),AC50,[8],inconclusive: 5 µM
O=C1OC(c2ccc(O)cc2)(c2ccc(O)cc2)c2ccccc21,outcome,[8],inactive
same,AC50,[13],inconclusive: 1.42 µM
same,AC50,[18],active: 26.9 µM
same,AC50,[16],inconclusive: 50 µM
same,AC50,[17],inconclusive: 87.9 µM
NNC(=O)c1ccncc1,AC50,[15],active: 20.7 µM
CCN(CC)C(=S)SSC(=S)N(CC)CC,AC50,[14],active: 7200 nM
same,AC50,[16],active: 15.5 µM
COc1ccc2c(c1)c(CC(=O)O)c(C)n2C(=O)c1ccc(Cl)cc1,AC50,[12],inconclusive: 161 µM
CC(C)(C)c1ccc(O)c(O)c1,AC50,[8],active: 76.2 µM
c1ccc(OCCOc2ccccc2)cc1,AC50,[8],inconclusive: 0.604 µM
Fc1ccccc1[C@@H](F)COC1CCC(Nc2ncnc3[nH]ncc23)CC1 (stereo partly specified),outcome,[8],inactive
OCC(CO)(CBr)CBr,outcome,[8],inactive
same,outcome,[19],inactive
same,AC50,[16],inconclusive: 50 µM
same,AC50,[17],inconclusive: 50 µM
O=C1CCC(N2C(=O)c3ccccc3C2=O)C(=O)N1 (stereo unspecified),AC50,[8],active: 0.121 µM
OC[C@@H](O)[C@@H](O)[C@H](O)[C@H](O)CO,outcome,[8],inactive
same,AC50,[18],inconclusive: 50 µM
same,outcome,[19],inactive
same,AC50,[16],inconclusive: 0.417 µM
CCCCCCOC(C)=O,AC50,[8],inconclusive: 9.92 µM
O=NO,AC50,[8],inconclusive: 25.4 µM
CCCCOC(=O)c1ccccc1,outcome,[12],inactive
CCCCCCCCCCCCc1ccccc1S(=O)(=O)O,AC50,[8],inconclusive: 0.0003 µM
same,AC50,[14],inconclusive: 120 nM
same,AC50,[16],inconclusive: 0.12 µM
same,AC50,[17],inconclusive: 50 µM
CCCCC(CC)COP(=O)(OCC(CC)CCCC)OCC(CC)CCCC (stereo unspecified),outcome,[8],inactive
same,AC50,[13],inconclusive: 0.0992 µM
same,outcome,[16],inactive
same,outcome,[17],inactive
Nc1nc(Cl)nc2c1ncn2[C@H]1C[C@H](O)[C@@H](CO)O1,AC50,[13],active: 0.354 µM
same,outcome,[13],inactive
same,AC50,[14],inconclusive: 120 nM and active: 345 nM
Cc1ccc(Cl)cc1,AC50,[12],inconclusive: 181 µM
